One test has as its target Flag-CCM2 (UniProt Q9BSQ5). In words: co-IP; HEK293T (for Figure 4E also HEK293T shCCM2) transfected with Flag- and HA-tagged plasmids, treated with DMSO or CK-666 (100 uM); lysis in 25 mM Tris-HCl pH 7.4, 150 mM NaCl, 1% NP-40, 1 mM EDTA, 5% glycerol; anti-DDDDK-tag antibody overnight at 4 °C, protein A + G agarose; detection with anti-HA.
The target of the next test is Flag-Smurf1 (UniProt Q9HCE7). The test is described as above.
The target of the next test is Flag-RhoA (UniProt P61586). The test is described as above.
Another test concerns the target HA-RhoA Q63L (UniProt P61586). In words: proximity ligation; in situ PLA (Duolink) in fixed, permeabilised cells treated with DMSO or CK-666; primary antibodies against the two proteins.
Another test concerns the target cortactin (UniProt Q14247). The description is as above.
A further test has as its target GST-RhoA Q63L (UniProt P61586). The experiment in a line: pull-down; active RhoGAP pulldown: GST-RhoA Q63L on glutathione Sepharose (50 ug/mL) incubated with total cell lysate for 1 h at 4 °C; lysis buffer 150 mM NaCl, 20 mM HEPES pH 7.6, 10 mM MgCl2, 1% Triton X-100; cells treated with DMSO or CK-666; p190RhoGAP detected by western blot; only the target purified.
The target of test [1] is cortactin (Co-IP of Figure 2F) (UniProt Q14247). The experiment in a line: co-IP; Co-IP 'as indicated' in Figure 2F, cells treated with DMSO or CK-666; which protein was precipitated is not told.

Protein sequences, listed by entry. Tags and fused reporters are not part of them. Lines headed by an entry give the natural chain unless they say otherwise; changes in a name come on top. Chains listed by the source or under a name are the forms on record and can include a tag or linker.
UniProt Q9BSQ5: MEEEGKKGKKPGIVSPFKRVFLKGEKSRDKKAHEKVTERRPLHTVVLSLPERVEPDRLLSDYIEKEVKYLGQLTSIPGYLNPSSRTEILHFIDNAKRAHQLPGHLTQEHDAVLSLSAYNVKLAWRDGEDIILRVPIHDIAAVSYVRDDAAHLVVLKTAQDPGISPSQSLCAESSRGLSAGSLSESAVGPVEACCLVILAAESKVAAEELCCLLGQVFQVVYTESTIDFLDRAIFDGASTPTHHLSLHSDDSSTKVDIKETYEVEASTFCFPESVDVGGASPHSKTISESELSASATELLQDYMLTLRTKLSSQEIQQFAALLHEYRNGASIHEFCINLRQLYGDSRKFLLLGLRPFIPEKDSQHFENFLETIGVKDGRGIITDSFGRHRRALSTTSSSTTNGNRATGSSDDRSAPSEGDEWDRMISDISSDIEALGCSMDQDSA
HA-Smurf1 (Q9HCE7-2, form named): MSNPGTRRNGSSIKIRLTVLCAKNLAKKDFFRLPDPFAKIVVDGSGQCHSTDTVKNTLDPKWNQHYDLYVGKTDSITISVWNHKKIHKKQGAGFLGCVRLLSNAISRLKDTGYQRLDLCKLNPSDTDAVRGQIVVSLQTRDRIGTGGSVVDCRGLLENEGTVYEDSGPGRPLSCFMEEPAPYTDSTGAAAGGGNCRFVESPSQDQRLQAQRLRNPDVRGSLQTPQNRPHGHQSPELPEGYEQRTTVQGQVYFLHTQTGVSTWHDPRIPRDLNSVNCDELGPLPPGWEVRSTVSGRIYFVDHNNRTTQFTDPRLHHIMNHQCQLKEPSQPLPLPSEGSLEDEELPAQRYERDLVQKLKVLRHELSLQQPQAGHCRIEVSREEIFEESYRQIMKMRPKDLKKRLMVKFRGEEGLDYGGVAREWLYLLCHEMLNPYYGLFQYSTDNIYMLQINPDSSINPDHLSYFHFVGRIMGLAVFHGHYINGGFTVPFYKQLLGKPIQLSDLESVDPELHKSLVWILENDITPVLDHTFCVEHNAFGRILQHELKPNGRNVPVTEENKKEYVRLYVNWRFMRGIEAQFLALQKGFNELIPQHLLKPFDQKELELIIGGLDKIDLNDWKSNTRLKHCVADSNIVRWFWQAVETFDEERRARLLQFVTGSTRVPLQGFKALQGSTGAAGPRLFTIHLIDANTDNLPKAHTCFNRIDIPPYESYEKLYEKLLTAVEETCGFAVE
UniProt P61586: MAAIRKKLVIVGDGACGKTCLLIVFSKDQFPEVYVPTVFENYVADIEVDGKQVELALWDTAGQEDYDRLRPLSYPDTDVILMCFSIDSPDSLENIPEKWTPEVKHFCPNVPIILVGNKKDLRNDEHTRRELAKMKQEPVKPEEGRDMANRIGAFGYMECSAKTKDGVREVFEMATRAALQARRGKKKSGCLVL
UniProt Q14247: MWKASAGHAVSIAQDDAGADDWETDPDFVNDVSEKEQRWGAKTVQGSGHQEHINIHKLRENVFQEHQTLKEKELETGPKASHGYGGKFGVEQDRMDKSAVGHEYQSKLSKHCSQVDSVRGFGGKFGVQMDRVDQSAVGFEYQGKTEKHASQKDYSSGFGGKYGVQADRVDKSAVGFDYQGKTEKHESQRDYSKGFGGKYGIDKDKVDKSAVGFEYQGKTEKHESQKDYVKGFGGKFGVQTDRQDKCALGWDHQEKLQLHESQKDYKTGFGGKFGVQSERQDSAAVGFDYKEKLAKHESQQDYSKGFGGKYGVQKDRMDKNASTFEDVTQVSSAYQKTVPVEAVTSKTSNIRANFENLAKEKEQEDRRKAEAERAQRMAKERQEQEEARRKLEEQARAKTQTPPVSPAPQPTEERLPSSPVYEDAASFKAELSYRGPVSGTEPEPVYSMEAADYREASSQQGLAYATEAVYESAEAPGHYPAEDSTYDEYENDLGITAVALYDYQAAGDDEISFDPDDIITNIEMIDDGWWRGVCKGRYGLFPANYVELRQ

No constants are given. Whether binding was seen depends on the method and setting. Binding seen in cells or lysates may run through a third protein. Some entries that bind do so weakly or less than the wild type.

On to HA-RhoA (from UniProt P61586 1-193), for which the binding result with Flag-CCM2 and with Flag-Smurf1 was “binds” in each case.
With HA-Smurf1 (from UniProt Q9HCE7-2 1-731), the binding entry in the test with Flag-CCM2 and with Flag-RhoA was “binds” in each case.

B1: p190RhoGAP (protein, UniProt Q9NRY4 1-1499)
chain: MMMARKQDVRIPTYNISVVGLSGTEKEKGQCGIGKSCLCNRFVRPSADEFHLDHTSVLSTSDFGGRVVNNDHFLYWGEVSRSLEDCVECKMHIVEQTEFIDDQTFQPHRSTALQPYIKRAAATKLASAEKLMYFCTDQLGLEQDFEQKQMPDGKLLVDGFLLGIDVSRGMNRNFDDQLKFVSNLYNQLAKTKKPIVVVLTKCDEGVERYIRDAHTFALSKKNLQVVETSARSNVNVDLAFSTLVQLIDKSRGKTKIIPYFEALKQQSQQIATAKDKYEWLVSRIVKNHNENWLSVSRKMQASPEYQDYVYLEGTQKAKKLFLQHIHRLKHEHIERRRKLYLAALPLAFEALIPNLDEIDHLSCIKAKKLLETKPEFLKWFVVLEETPWDATSHIDNMENERIPFDLMDTVPAEQLYEAHLEKLRNERKRVEMRRAFKENLETSPFITPGKPWEEARSFIMNEDFYQWLEESVYMDIYGKHQKQIIDKAKEEFQELLLEYSELFYELELDAKPSKEKMGVIQDVLGEEQRFKALQKLQAERDALILKHIHFVYHPTKETCPSCPACVDAKIEHLISSRFIRPSDRNQKNSLSDPNIDRINLVILGKDGLARELANEIRALCTNDDKYVIDGKMYELSLRPIEGNVRLPVNSFQTPTFQPHGCLCLYNSKESLSYVVESIEKSRESTLGRRDNHLVHLPLTLILVNKRGDTSGETLHSLIQQGQQIASKLQCVFLDPASAGIGYGRNINEKQISQVLKGLLDSKRNLNLVSSTASIKDLADVDLRIVMCLMCGDPFSADDILFPVLQSQTCKSSHCGSNNSVLLELPIGLHKKRIELSVLSYHSSFSIRKSRLVHGYIVFYSAKRKASLAMLRAFLCEVQDIIPIQLVALTDGAVDVLDNDLSREQLTEGEEIAQEIDGRFTSIPCSQPQHKLEIFHPFFKDVVEKKNIIEATHMYDNAAEACSTTEEVFNSPRAGSPLCNSNLQDSEEDIEPSYSLFREDTSLPSLSKDHSKLSMELEGNDGLSFIMSNFESKLNNKVPPPVKPKPPVHFEITKGDLSYLDQGHRDGQRKSVSSSPWLPQDGFDPSDYAEPMDAVVKPRNEEENIYSVPHDSTQGKIITIRNINKAQSNGSGNGSDSEMDTSSLERGRKVSIVSKPVLYRTRCTRLGRFASYRTSFSVGSDDELGPIRKKEEDQASQGYKGDNAVIPYETDEDPRRRNILRSLRRNTKKPKPKPRPSITKATWESNYFGVPLTTVVTPEKPIPIFIERCIEYIEATGLSTEGIYRVSGNKSEMESLQRQFDQDHNLDLAEKDFTVNTVAGAMKSFFSELPDPLVPYNMQIDLVEAHKINDREQKLHALKEVLKKFPKENHEVFKYVISHLNKVSHNNKVNLMTSENLSICFWPTLMRPDFSTMDALTATRTYQTIIELFIQQCPFFFYNRPITEPPGARPSSPSAVASTVPFLTSTPVTSQPSPPQSPPPTPQSPMQPLLPSQLQAEHTL
On to B1, for which the binding result in the test with HA-RhoA Q63L, in the test with cortactin and in the test with GST-RhoA Q63L was “binds” in each case.

B2: p190RhoGAP (Co-IP of Figure 2F) (protein, UniProt Q9NRY4 1-1499)
chain: MMMARKQDVRIPTYNISVVGLSGTEKEKGQCGIGKSCLCNRFVRPSADEFHLDHTSVLSTSDFGGRVVNNDHFLYWGEVSRSLEDCVECKMHIVEQTEFIDDQTFQPHRSTALQPYIKRAAATKLASAEKLMYFCTDQLGLEQDFEQKQMPDGKLLVDGFLLGIDVSRGMNRNFDDQLKFVSNLYNQLAKTKKPIVVVLTKCDEGVERYIRDAHTFALSKKNLQVVETSARSNVNVDLAFSTLVQLIDKSRGKTKIIPYFEALKQQSQQIATAKDKYEWLVSRIVKNHNENWLSVSRKMQASPEYQDYVYLEGTQKAKKLFLQHIHRLKHEHIERRRKLYLAALPLAFEALIPNLDEIDHLSCIKAKKLLETKPEFLKWFVVLEETPWDATSHIDNMENERIPFDLMDTVPAEQLYEAHLEKLRNERKRVEMRRAFKENLETSPFITPGKPWEEARSFIMNEDFYQWLEESVYMDIYGKHQKQIIDKAKEEFQELLLEYSELFYELELDAKPSKEKMGVIQDVLGEEQRFKALQKLQAERDALILKHIHFVYHPTKETCPSCPACVDAKIEHLISSRFIRPSDRNQKNSLSDPNIDRINLVILGKDGLARELANEIRALCTNDDKYVIDGKMYELSLRPIEGNVRLPVNSFQTPTFQPHGCLCLYNSKESLSYVVESIEKSRESTLGRRDNHLVHLPLTLILVNKRGDTSGETLHSLIQQGQQIASKLQCVFLDPASAGIGYGRNINEKQISQVLKGLLDSKRNLNLVSSTASIKDLADVDLRIVMCLMCGDPFSADDILFPVLQSQTCKSSHCGSNNSVLLELPIGLHKKRIELSVLSYHSSFSIRKSRLVHGYIVFYSAKRKASLAMLRAFLCEVQDIIPIQLVALTDGAVDVLDNDLSREQLTEGEEIAQEIDGRFTSIPCSQPQHKLEIFHPFFKDVVEKKNIIEATHMYDNAAEACSTTEEVFNSPRAGSPLCNSNLQDSEEDIEPSYSLFREDTSLPSLSKDHSKLSMELEGNDGLSFIMSNFESKLNNKVPPPVKPKPPVHFEITKGDLSYLDQGHRDGQRKSVSSSPWLPQDGFDPSDYAEPMDAVVKPRNEEENIYSVPHDSTQGKIITIRNINKAQSNGSGNGSDSEMDTSSLERGRKVSIVSKPVLYRTRCTRLGRFASYRTSFSVGSDDELGPIRKKEEDQASQGYKGDNAVIPYETDEDPRRRNILRSLRRNTKKPKPKPRPSITKATWESNYFGVPLTTVVTPEKPIPIFIERCIEYIEATGLSTEGIYRVSGNKSEMESLQRQFDQDHNLDLAEKDFTVNTVAGAMKSFFSELPDPLVPYNMQIDLVEAHKINDREQKLHALKEVLKKFPKENHEVFKYVISHLNKVSHNNKVNLMTSENLSICFWPTLMRPDFSTMDALTATRTYQTIIELFIQQCPFFFYNRPITEPPGARPSSPSAVASTVPFLTSTPVTSQPSPPQSPPPTPQSPMQPLLPSQLQAEHTL
On to B2, for which, in test [1], the binding result is listed as “binds”.

The values are drawn from paper PMC6830327.
